These are yes or no findings as the source states them, for the method shown. Some binding calls cover weakened binding; strength is not graded here.
Target: HA PD-1 chimeric cytokine receptor: HAPD1.TpoR(478-582).IL7Ra(316-459).IL12Rb2(775-825)
Assay: cell-binding assay, flow cytometry on HA PD-1 chimeric cytokine receptor CAR-T cells (FIG. 7A)

Sequences of proteins named here, by UniProt entry; tags and fusion partners are left off. A change or cut given only in a name is not applied to a line headed by its entry.
UniProt Q9NZQ7: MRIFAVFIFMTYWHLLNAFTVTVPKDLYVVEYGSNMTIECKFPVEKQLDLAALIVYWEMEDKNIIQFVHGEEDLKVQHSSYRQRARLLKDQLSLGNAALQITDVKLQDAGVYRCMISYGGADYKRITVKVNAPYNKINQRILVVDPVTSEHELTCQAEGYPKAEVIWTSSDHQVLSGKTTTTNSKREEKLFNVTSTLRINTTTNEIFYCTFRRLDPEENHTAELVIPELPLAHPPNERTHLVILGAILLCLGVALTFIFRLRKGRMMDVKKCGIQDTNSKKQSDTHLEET

- binding: binds
Substance: recombinant human PD-L1-Fc (Biolegend) (from UniProt Q9NZQ7 19-238) (Fc fusion)
